PubChem BioAssay AID686938 – Drosophila RNAi Screening Center – 2013
Assay: 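Knock-downs reducing store-operated calcium influx in Drosophila cells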 (primary screen). System: Drosophila S2R+ cells. Reagents: long dsRNA against Drosophila genes, about 0.25 µg dsRNA per well, roughly 10,000 cells. Duration: 5 days of knock-down before the calcium assay. Treatment: thapsigargin (SERCA pump blocker) to empty calcium stores; entry signal taken 4 min after adding it. Measurement: 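Per-well fluo-4 fluorescence in two replicates, unnormalised, measured in resting cells and 4 min after store depletion by the SERCA blocker thapsigargin; ratio of the two present in few wells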. Reading the numbers: calcium entry signal: higher = stronger calcium signal after store depletion; resting calcium signal: higher = higher resting calcium signal. Active means: 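Called when the plate z-score of the entry-to-rest ratio, mean of duplicates, falls below −3; wells with low overall dye signal (Fmax z below −2) or more than five off-targets excluded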. Meaning of the calls: active = strongly reduced calcium entry; inactive = no strong reduction.
In all, the deposit lists about 23,000 reagents; below is an unselected part of those that have a named target and a result. In the full data, 75 (0.33%) were called active. 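Raw plate signals without normalisation; calls rest on plate z-scores that were not deposited; ratio present for only 364 wells.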 Entries without a mark were called inactive. Names joined by + are all predicted targets of the reagent. The record does not give: the dose of the treatment.

| calcium entry signal, replicate 1 (fluorescence units) | calcium entry signal, replicate 2 (fluorescence units) | resting calcium signal, replicate 1 (fluorescence units) | resting calcium signal, replicate 2 (fluorescence units) | gene | amplicon |
| --- | --- | --- | --- | --- | --- |
| 5.63e7 | 2.96e7 | 2.28e7 | 1.23e7 | CG42531 | DRSC05318 |
| 2.18e7 | 2.55e7 | 1.22e7 | 1.17e7 | Cnx14D (Calnexin 14D) | DRSC20214 |
| 2.14e7 | 3.50e7 | 1.20e7 | 1.59e7 | nAChRalpha4 (nicotinic Acetylcholine Receptor alpha4) | DRSC11925 |
| 2.34e7 | 2.75e7 | 1.34e7 | 1.34e7 | nAChRalpha4 (nicotinic Acetylcholine Receptor alpha4) | DRSC11929 |
| 4.57e7 | 3.45e7 | 2.35e7 | 1.77e7 | CG42304 + Snup | DRSC08276 |
| 4.08e7 | 4.72e7 | 2.01e7 | 2.20e7 | CG42304 + Snup | DRSC08277 |
| 4.65e7 | 3.61e7 | 2.87e7 | 1.77e7 | CG42304 + Snup | DRSC22781 |
| 3.17e7 | 3.97e7 | 1.48e7 | 1.71e7 | Tsp42Eq (Tetraspanin 42Eq) | DRSC06180 |
| 3.20e7 | 3.53e7 | 1.47e7 | 1.76e7 | Cyp6g1 (Cytochrome P450 6g1) | DRSC07386 |
| 4.52e7 | 5.76e7 | 2.19e7 | 2.38e7 | CG31797 | DRSC02476 |
| 4.66e7 | 5.36e7 | 2.14e7 | 2.20e7 | CG31797 | DRSC02477 |
| 3.96e7 | 4.78e7 | 2.04e7 | 2.00e7 | CG9344 | DRSC04541 |
| 4.29e7 | 4.78e7 | 1.94e7 | 2.19e7 | CG7772 | DRSC20056 |
| 4.17e7 | 5.35e7 | 1.77e7 | 2.34e7 | CG30460 | DRSC06559 |
| 2.35e7 | 2.86e7 | 1.28e7 | 1.63e7 | CG30460 | DRSC06560 |
| 4.27e7 | 3.27e7 | 2.04e7 | 1.50e7 | CG30460 | DRSC23115 |
| 2.83e7 | 4.47e7 | 1.23e7 | 1.99e7 | CG13247 | DRSC11695 |
| 4.35e7 | 2.94e7 | 2.35e7 | 1.45e7 | CG15056 | DRSC19630 |
| 2.91e7 | 3.53e7 | 1.52e7 | 1.61e7 | CG9016 | DRSC03127 |
| 2.19e7 | 3.00e7 | 1.22e7 | 1.29e7 | RpL22-like (Ribosomal protein L22-like) | DRSC04582 |
| 4.41e7 | 3.52e7 | 1.81e7 | 1.63e7 | gcl (germ cell-less) | DRSC07623 |
| 3.14e7 | 3.19e7 | 1.59e7 | 1.44e7 | CG32413 | DRSC21591 |
| 2.97e7 | 3.48e7 | 1.60e7 | 1.66e7 | Gba1a (Glucocerebrosidase 1a) | DRSC21494 |
| 3.59e7 | 4.28e7 | 1.77e7 | 1.88e7 | ppk16 (pickpocket 16) | DRSC02736 |

An excerpt from above, reduced to “resting calcium signal, replicate 1 (fluorescence units)”.
CG32413 [DRSC21591]: 1.59e7
Gba1a (Glucocerebrosidase 1a) [DRSC21494]: 1.60e7
